The source of these data is doi:10.1101/2020.05.27.118315.

Sequences of proteins named here, by UniProt entry; tags and fusion partners are left off.
UniProt Q12315: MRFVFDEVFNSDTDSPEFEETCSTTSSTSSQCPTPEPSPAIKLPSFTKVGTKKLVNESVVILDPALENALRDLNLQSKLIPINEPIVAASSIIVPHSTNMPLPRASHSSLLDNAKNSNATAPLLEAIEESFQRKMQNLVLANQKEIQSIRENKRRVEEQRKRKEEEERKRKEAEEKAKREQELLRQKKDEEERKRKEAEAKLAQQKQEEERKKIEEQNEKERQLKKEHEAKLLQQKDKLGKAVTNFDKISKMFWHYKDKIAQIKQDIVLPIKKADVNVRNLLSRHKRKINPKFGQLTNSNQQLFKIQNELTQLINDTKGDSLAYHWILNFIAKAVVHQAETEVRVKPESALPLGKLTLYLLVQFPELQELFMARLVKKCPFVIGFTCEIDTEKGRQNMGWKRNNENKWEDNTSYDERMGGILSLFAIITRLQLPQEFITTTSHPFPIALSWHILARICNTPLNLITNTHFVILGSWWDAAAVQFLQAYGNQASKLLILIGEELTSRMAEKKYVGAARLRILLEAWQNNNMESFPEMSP

Like-named read-outs stand apart in the source and are kept apart here. These are yes or no findings as the source states them, for the method shown. In cells and extracts the contact can be indirect. Here binding means that the protein was enriched with, or labelled near, the bait; the list need not be complete.

The target in test [1] is T1, Med13-3xHA (S. cerevisiae) (UniProt P38931).
T1 sequence: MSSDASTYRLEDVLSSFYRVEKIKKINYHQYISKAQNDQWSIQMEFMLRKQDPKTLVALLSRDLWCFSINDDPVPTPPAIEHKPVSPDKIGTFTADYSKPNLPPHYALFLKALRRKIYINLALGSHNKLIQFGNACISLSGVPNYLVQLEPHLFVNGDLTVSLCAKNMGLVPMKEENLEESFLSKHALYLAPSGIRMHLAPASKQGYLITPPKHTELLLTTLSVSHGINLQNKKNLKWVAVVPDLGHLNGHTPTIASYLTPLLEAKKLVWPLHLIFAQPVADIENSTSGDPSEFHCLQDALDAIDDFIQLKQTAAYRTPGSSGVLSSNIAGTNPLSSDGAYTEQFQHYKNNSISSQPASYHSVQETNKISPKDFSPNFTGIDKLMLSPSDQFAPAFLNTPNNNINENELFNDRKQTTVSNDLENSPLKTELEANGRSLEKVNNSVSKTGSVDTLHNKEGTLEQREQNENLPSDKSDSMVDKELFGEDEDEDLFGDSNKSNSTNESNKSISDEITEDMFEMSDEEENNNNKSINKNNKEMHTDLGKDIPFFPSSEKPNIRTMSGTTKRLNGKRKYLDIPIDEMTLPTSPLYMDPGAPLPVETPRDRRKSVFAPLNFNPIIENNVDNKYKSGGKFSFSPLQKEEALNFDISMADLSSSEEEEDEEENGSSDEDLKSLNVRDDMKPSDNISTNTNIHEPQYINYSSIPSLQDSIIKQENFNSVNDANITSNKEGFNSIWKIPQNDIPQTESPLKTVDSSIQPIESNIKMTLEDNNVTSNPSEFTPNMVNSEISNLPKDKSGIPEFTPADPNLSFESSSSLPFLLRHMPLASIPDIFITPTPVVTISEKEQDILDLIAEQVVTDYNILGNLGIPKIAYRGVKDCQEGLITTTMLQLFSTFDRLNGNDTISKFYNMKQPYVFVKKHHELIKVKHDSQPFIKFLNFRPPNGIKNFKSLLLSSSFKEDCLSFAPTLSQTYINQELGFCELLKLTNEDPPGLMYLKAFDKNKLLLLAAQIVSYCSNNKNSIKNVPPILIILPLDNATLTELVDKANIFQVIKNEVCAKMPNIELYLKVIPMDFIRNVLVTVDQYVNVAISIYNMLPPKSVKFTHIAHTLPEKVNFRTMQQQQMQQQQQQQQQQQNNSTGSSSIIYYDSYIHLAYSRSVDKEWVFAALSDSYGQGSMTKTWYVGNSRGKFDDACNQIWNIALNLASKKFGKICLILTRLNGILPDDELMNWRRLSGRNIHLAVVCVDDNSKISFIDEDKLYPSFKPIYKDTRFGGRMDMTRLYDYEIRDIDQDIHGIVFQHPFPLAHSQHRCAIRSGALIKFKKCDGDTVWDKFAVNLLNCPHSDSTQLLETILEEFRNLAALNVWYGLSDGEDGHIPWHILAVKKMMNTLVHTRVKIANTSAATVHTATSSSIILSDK
Put plainly: affinity purification with mass spectrometry.

Test [2] addresses T1, Med13-3xHA (S. cerevisiae). Put plainly: affinity purification with mass spectrometry. This is another data set of the same source.

For Gle1 (from UniProt Q12315 1-538), the binding result in test [1] is “binds”.

B1: Snx4 (protein, UniProt P47057 1-423)
chain: MTDKGKNDLTSKAKDKARGNPEKPPYWFEIIVSDPQKRTGDPGSSSGYVSYQISTKTNNTSFYDNRGDPESIIVVHRRYSDLLLLHDILLNRFPTCIIPPLPDKKVFQYIAGDRFSQRFTQKRCHSLQNFLRRVSLHPDLSQSKVFKTFLVSKDWESHRKVLQDSLQPNKDEVTDAFMNAFKTVHKQNEEFTEIREKSDKLDRTVTKIDKLFHKVVKKNDSMSEDYTKLGSNLQELQELVTGENEELAAKLKIFNEGVTQLSYGLQDLTKYLDYEYIVDLKDLEHYIDSMRQLIKLKDQKQIDYEELSDYLTRSIKEKNNLISGYGGSNFFANKLEELAGINQEASRREKINKLEGKITSLTGELENAKKVADGFEQECLKEIDHFESVKTAEIKKSLGSLADHHIEFYERILEAWEKVDDSL
B1: the binding result in test [2] is “binds”.
